The list shows a part of the results. The main result of the screen is listed elsewhere. These columns were measured beside it and carry no call. Most of these compounds were active or inconclusive in the main read-out, so they are no random draw. Potencies come from curve fits of mixed quality, noted in brackets.
Assay: qHTS Assay for Lipid Storage Modulators in Drosophila S3 Cells;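 as to cell number change: cells counted by Cell Tracker Red CMTPX staining in the red channel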
Details: BODIPY lipid droplet fluorescence, 18-24 h; for cell number change: measured here: cell count max response, cells fed with added oleic acid
Method in brief: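 Drosophila S3 cells loaded with oleic acid (400 uM, as added) and compounds at several concentrations; lipid droplets imaged by 488-nm laser-scanning cytometry, 500–530 nm intensity and object ratio to cell channel. Percent activity normalized to 20 uM Triacsin C.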

[1] = measured here: lipid fluorescence (Fed channel) AC50, cells fed with added oleic acid
[2] = measured here: cell number channel AC50, cells fed with added oleic acid

Q: With CCCc1cc(=O)[nH]c(SCC(=O)c2ccc3c(c2)OCCO3)n1 as the compound, how does the cell number change read?
A: Its cell number change is 19.4%.

Q: What about the AC50 [1] of the same compound?
A: The AC50 was 25.9 µM [rising, partial curve, poor fit].

Q: Which cell number change does the source give for Cc1cccc(C)c1NC(=O)COC(=O)c1cc[n+]([O-])cc1 here?
A: The cell number change was 0.549%.

Q: And the AC50 [1]?
A: Its AC50 is 29.1 µM [rising, single point].

Q: Which results are given for CC(O)c1c(OCc2ccccc2)ncnc1OCc1ccccc1 (centres undefined)?
A: cell number change: -40.1%; AC50 [2]: 16.4 µM [falling, single point]

Q: Which results are given for Cc1ccc(S(=O)(=O)N2CCN(c3nc(CN4CCCC4)nc4sc(C)c(C)c34)CC2)cc1?
A: cell number change: -1.66%; AC50 [2]: 1.16 µM [falling, full curve, poor fit]; AC50 [1]: 1.3 µM [falling, partial curve]

Q: For Cc1nc2ccc(S(=O)(=O)NCC(=O)Nc3cccc(F)c3)cc2s1, which cell number change is on record?
A: Its cell number change is 5.56%.

Q: What about the AC50 [1] of the same compound?
A: Its AC50 is 4.11 µM [falling, single point].

Q: For COc1ccccc1NC(=S)N/N=C/c1ccc(O)cc1, which cell number change is on record?
A: The cell number change was 8.36%.

Q: What about the AC50 [1] of the same compound?
A: Its AC50 is 16.4 µM [rising, partial curve].

Q: What does the source list for Cc1ccc(C2(c3ccccc3)NC(=O)N(CC(=O)NCc3ccccc3)C2=O)cc1C (centres undefined)?
A: cell number change: -24.3%; AC50 [1]: 0.58 µM [falling, partial curve, poor fit]

Q: With N=c1c(C(=O)NC2CCCCC2)cc2c(=O)n3ccccc3nc2n1CC1CCCO1 (centres undefined) as the compound, how does the AC50 [1] read?
A: Its AC50 is 5.17 µM [falling, single point].

Q: For COc1cccc(NC(=O)Nc2cc(C(=O)NC(C)C)ccc2N2CC3CC(C2)c2cccc(=O)n2C3)c1 (centres undefined), which cell number change is on record?
A: Its cell number change is 22.6%.

Q: And the AC50 [2]?
A: The AC50 was 0.058 µM [rising, full curve, poor fit].

Q: What does the source list for O=C(Nc1ccc(N2CCOCC2)c(Cl)c1)c1ccc(S(=O)(=O)N2CCOCC2)cc1?
A: cell number change: -40.5%; AC50 [2]: 16.4 µM [falling, single point]; AC50 [1]: 29.1 µM [falling, single point]

Q: Which cell number change does the source give for O=C(O)Cc1cn(Cc2cccc(Cl)c2)c2ccccc12 here?
A: The cell number change was -6.91%.

Q: Which cell number change does the source give for O=C(O)c1n[nH]c2c1CC(C1CCCCC1)CC2 (centres undefined) here?
A: Its cell number change is 16.4%.

Q: And the AC50 [2]?
A: The AC50 was 0.731 µM [falling, single point].

Q: What about the AC50 [1] of the same compound?
A: Its AC50 is 0.0651 µM [rising, full curve, poor fit].

Q: Which results are given for Cn1c(N)c(-c2ccccc2)c2ccc([N+](=O)[O-])cc2c1=O?
A: cell number change: 30.6%; AC50 [2]: 11.6 µM [rising, partial curve]

Q: Which cell number change does the source give for COc1ccc(CNC(=O)CN(C(=O)c2csnn2)c2ccccc2F)cc1 here?
A: The cell number change was 10.1%.

Q: Which cell number change does the source give for Cc1ccc(C(=O)NCc2ccco2)cc1Br here?
A: The cell number change was 3.73%.

Q: And the AC50 [1]?
A: Its AC50 is 6.51 µM [rising, single point].

Q: Which cell number change does the source give for COc1ccc(CN2C(=NC(=O)CCc3ccccc3)SC3CS(=O)(=O)CC32)cc1 (centres undefined) here?
A: Its cell number change is 82.3%.

Q: And the AC50 [2]?
A: Its AC50 is 20.6 µM [rising, partial curve, poor fit].

Q: What does the source list for CN(C)S(=O)(=O)N1CCc2ccc(NC(=O)c3ccc(C(F)(F)F)cc3)cc2C1?
A: cell number change: -12.9%; AC50 [1]: 3.66 µM [rising, single point]

Q: With OCC[C@@H]1C[C@@H](O)[C@H](O)[C@]2(Cc3ccccc3O2)O1 as the compound, how does the cell number change read?
A: The cell number change was 4.19%.

Q: For COc1ccccc1N(CC(O)CN1CCCCC1)S(=O)(=O)c1ccc(C)cc1 (centres undefined), which cell number change is on record?
A: Its cell number change is 1.8%.

Q: For C/C(Cl)=C/Cn1c(N2CCCC2)nc2c1c(=O)[nH]c(=O)n2C, which cell number change is on record?
A: The cell number change was 6.08%.

Q: Which cell number change does the source give for CCOC(=O)c1c(NC(=O)COc2ccc3ccc(=O)oc3c2)sc(C(=O)N(C)C)c1C here?
A: Its cell number change is -0.758%.

Q: And the AC50 [1]?
A: Its AC50 is 1.3 µM [rising, partial curve].

Q: With Cc1ccc(C)c(NC(=O)C(=O)NCC2CCCN2S(=O)(=O)c2cccs2)c1 (centres undefined) as the compound, how does the cell number change read?
A: Its cell number change is 31.3%.

Q: And the AC50 [2]?
A: Its AC50 is 1.46 µM [rising, partial curve, poor fit].

Q: For O=C(c1ccccc1[N+](=O)[O-])N1CCCC(C(=O)N2CCCCCC2)C1 (centres undefined), which cell number change is on record?
A: The cell number change was 3.44%.

Q: And the AC50 [1]?
A: Its AC50 is 5.8 µM [rising, single point].

Q: For Cc1ccc2cccc(S(=O)(=O)N3CCCc4ccccc43)c2n1, which cell number change is on record?
A: Its cell number change is -4.14%.

Q: And the AC50 [2]?
A: The AC50 was 3.66 µM [falling, single point].

Q: Which results are given for Cc1ccc(-c2nnn(CC(=O)N(CC(=O)NCc3ccccc3)c3cccc(C)c3C)n2)o1?
A: cell number change: 59%; AC50 [2]: 9.2 µM [rising, partial curve, poor fit]; AC50 [1]: 11.6 µM [rising, partial curve]

Q: Which cell number change does the source give for CCCOCC(O)COc1ccccc1C(=O)N1CCOCC1 (centres undefined) here?
A: The cell number change was -12.6%.

Q: What about the AC50 [1] of the same compound?
A: Its AC50 is 0.731 µM [rising, single point].

Q: With CC(C)OC(=O)CC1C(=O)NCCN1C(=S)NC(=O)CCc1ccccc1 (centres undefined) as the compound, how does the cell number change read?
A: Its cell number change is -21.8%.

Q: And the AC50 [1]?
A: The AC50 was 29.1 µM [falling, partial curve].

Q: For Cc1cc2c(cc1C)/C(=C\C(N)=O)NC(C)(C)C2, which cell number change is on record?
A: Its cell number change is -6.69%.

Q: For CCn1ccc(C(=O)Nc2sc3c(c2C(=O)OC)CCC3)n1, which cell number change is on record?
A: Its cell number change is -31.2%.

Q: What about the AC50 [2] of the same compound?
A: Its AC50 is 1.03 µM [falling, full curve, poor fit].

Q: What about the AC50 [1] of the same compound?
A: Its AC50 is 6.51 µM [falling, single point].

Q: Which cell number change does the source give for CC(C)=NN/C(N)=N/C(=S)Nc1ccc(C)cc1 here?
A: The cell number change was 18.3%.

Q: And the AC50 [1]?
A: Its AC50 is 11.6 µM [rising, partial curve, poor fit].

Q: Which cell number change does the source give for COC(=O)c1ccc(Sc2ccc(F)cc2)c(N)c1 here?
A: The cell number change was 1.34%.

Q: With O=C(COc1cccc2ccccc12)Nc1cc(Cl)ccc1C(=O)O as the compound, how does the cell number change read?
A: Its cell number change is 16.8%.

Q: And the AC50 [1]?
A: The AC50 was 1.64 µM [falling, partial curve].

Q: Which cell number change does the source give for CCCCOc1cccc(C(=O)NC(=S)Nc2ccc(Cl)c(C(=O)O)c2)c1 here?
A: Its cell number change is 8.95%.

Q: Which cell number change does the source give for COC(=O)c1ccccc1NC(=O)Nc1ccc(Cl)cn1 here?
A: Its cell number change is 121%.

Q: What does the source list for COc1ccc2c(=O)c(-c3ccccc3C)c(C)oc2c1?
A: cell number change: -6.51%; AC50 [1]: 32.6 µM [falling, single point]

Q: Which AC50 [2] does the source give for COc1cccc(S(=O)(=O)NCc2ccc3c(c2)OCO3)c1 here?
A: Its AC50 is 2.91 µM [rising, single point].

Q: And the AC50 [1]?
A: Its AC50 is 29.1 µM [rising, single point].

Q: For O=C(O)CSCC(=O)Nc1ccccn1, which cell number change is on record?
A: The cell number change was 17.7%.

Q: And the AC50 [2]?
A: The AC50 was 0.92 µM [falling, full curve].

Q: Which results are given for N#Cc1c(NC(=O)CSc2nc(-c3ccccc3)cc(C(F)(F)F)n2)sc2c1CCC2?
A: cell number change: 3.87%; AC50 [1]: 1.84 µM [rising, partial curve, poor fit]

Q: For CCCn1c(CN(C)Cc2ccccc2)nc2c1c(=O)n(C)c(=O)n2C, which cell number change is on record?
A: Its cell number change is -43.4%.

Q: What about the AC50 [2] of the same compound?
A: Its AC50 is 20.6 µM [falling, single point].

Q: What about the AC50 [1] of the same compound?
A: The AC50 was 16.4 µM [falling, single point].

Source: PubChem BioAssay AID2685 (National Center for Advancing Translational Sciences (NCATS), 2010)
